Measured values published in publication PMC11514477.
No constants are given. Whether binding was seen depends on the method and setting. Binding seen in cells or lysates may run through a third protein. Binding can be weak; no strength is given.

T1: Mcm4 (subunit of the Mcm DNA helicase complex) (mouse (endogenous in C2C12)) (UniProt P49717)
T1 sequence: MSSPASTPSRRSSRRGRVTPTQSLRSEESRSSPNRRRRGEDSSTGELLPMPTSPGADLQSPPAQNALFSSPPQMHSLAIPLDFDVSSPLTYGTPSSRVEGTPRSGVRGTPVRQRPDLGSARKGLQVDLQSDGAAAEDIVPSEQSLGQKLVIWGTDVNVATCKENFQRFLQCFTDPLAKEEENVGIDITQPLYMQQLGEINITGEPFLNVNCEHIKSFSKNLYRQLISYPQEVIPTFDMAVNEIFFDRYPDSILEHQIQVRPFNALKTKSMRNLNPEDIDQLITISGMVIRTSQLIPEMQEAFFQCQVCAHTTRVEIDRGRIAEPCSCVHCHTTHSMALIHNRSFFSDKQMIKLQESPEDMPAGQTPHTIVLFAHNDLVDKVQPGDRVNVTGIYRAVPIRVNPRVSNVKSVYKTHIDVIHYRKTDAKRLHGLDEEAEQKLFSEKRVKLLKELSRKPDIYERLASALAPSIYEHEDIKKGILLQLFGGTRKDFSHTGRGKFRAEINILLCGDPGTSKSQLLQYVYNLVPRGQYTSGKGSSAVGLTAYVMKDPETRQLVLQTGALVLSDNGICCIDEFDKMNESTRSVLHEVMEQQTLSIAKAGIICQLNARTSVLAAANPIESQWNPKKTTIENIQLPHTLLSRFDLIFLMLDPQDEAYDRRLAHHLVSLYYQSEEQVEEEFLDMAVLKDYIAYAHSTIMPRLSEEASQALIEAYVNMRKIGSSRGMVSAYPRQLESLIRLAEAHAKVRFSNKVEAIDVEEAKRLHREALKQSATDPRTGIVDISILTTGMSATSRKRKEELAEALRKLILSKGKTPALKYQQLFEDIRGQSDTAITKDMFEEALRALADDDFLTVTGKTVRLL

B1: Mcm4 (subunit of the Mcm DNA helicase complex) (protein, UniProt P49717 1-862)
chain: T1 sequence
B2: Mcm5 (subunit of the Mcm DNA helicase complex) (protein, UniProt P49718 1-734)
chain: MSGFDDPGIFYSDSFGGDPGAEEGQARKSQLQRRFKEFLRQYRVGTDRTGFTFKYRDELKRHYNLGEYWIEVEMEDLASFDEELADHLHKQPAEHLQLLEEAAKEVADEVTRPRPAGDELLQDIQVMLKSDASPSSIRILKSDMMSHLVKIPGIIISASAVRAKATRISIQCRSCHNTLTNIAMRPGLEGYALPRKCNMDQAGRPKCPLDPYFIMPDKCKCVDFQTLKLQELPDAVPHGEMPRHMQLYCDRYLCDKVVPGNRVTIMGIYSIKKFGLNPSKGRDRVGVGIRSSYIRVLGIQVDTDGSGRSFAGSVSPQEEEEFRRLAALPNIYELISKSISPSIFGGMDMKKAIACLLFGGSRKRLPDGLTRRGDINLLMLGDPGTAKSQLLKFVEKCSPIGVYTSGKGSSAAGLTASVIRDPSSRNFIMEGGAMVLADGGVVCIDEFDKMREDDRVAIHEAMEQQTISIAKAGITTTLNSRCSVLAAANSVFGRWDETKGEDNIDFMPTILSRFDMIFIVKDEHNEERDMMLAKHVMTLHVSALTQTQAVEGEIDLAKMKKFIAYCRARCGPRLSAEAAEKLKNRYIIMRSGARQHERDSDRRSSIPITVRQLEAIVRIAEALSKMKLQPFATEADVEEALRLFQVSTLDAALSGNLSGVEGFTTQEDQEMLSRIEKQLKRRFAIGSQVSEHSIVQDFTKQKYPEHAIRKVLQLMLRRGEIQHRMQRKVLYRLK
B3: Mcm3 (subunit of the Mcm DNA helicase complex) (protein, UniProt P25206 1-812)
chain: MAGTVVLDDVELREAQRDYLDFLDDEEDQGIYQNKVRELISDNQYRLIVSVNDLRRKNEKRANRLLNNAFEELVAFQRALKDFVASIDATYAKQYEEFYIGLEGSFGSKHVSPRTLTSCFLSCVVCVEGIVTKCSLVRPKVVRSVHYCPATKKTIERRYSDLTTLVAFPSSSVYPTKDEENNPLETEYGLSVYKDHQTITIQEMPEKAPAGQLPRSVDVILDDDLVDKVKPGDRIQVVGTYRCLPGKKGCYTSGTFRTVLIACNVKQMSKDIQPAFSADDIAKIKKFSKTRSKDVFEQLARSLAPSIHGHDYVKKAILCLLLGGVERELENGSHIRGDINILLIGDPSVAKSQLLRYVLCTAPRAIPTTGRGSSGVGLTAAVTTDQETGERRLEAGAMVLADRGVVCIDEFDKMSDMDRTAIHEVMEQGRVTIAKAGIHARLNARCSVLAAANPVYGRYDQYKTPMENIGLQDSLLSRFDLLFIMLDQMDPEQDREISDHVLRMHQYRAPGEQDGDALPLGSSVDILATDDPDFTQDDQQDTRIYEKHDSLLHGTKKKKEKMVSAAFMKKYIHVAKIIKPTLTQESAAYIAEEYSRLRSQDSMSSDTARTSPVTARTLETLIRLATAHAKARMSKTVDLQDAEEAVELVQYAYFKKVLEKEKKRKKASEDESDLEDEEEKSQEDTEQKRKRRKTHAKDGESYDPYDFSEAETQMPQVHTPKTDDSQEKTDDSQETQDSQKVELSEPRLKAFKAALLEVFQEAHEQSVGMLHLTESINRNREEPFSSEEIQACLSRMQDDNQVMVSEGIVFLI

Key:
[1] = target: T1, Mcm4 (subunit of the Mcm DNA helicase complex) (mouse (endogenous in C2C12)); experiment: co-IP; lysates of C2C12 cells transfected with macroH2A-GFP vectors and synchronized in G1/S; endogenous Mcm4 precipitated with anti-Mcm4 on Protein G agarose beads, 2 h; anti-MIN antibody as negative control
[2] = target: macroH2A1.1-GFP; experiment: co-IP; lysates of C2C12 cells transfected with macroH2A-GFP vectors, synchronized in G1/early S by double thymidine arrest, 48 h after transfection; lysis buffer 20 mM Tris-HCl pH 8, 150 mM NaCl, 0.5 mM EDTA, 0.5% NP-40; GFP-binder (nanobody) beads, 4°C, 90 min; western blot for GFP and Mcm …
[3] = target: macroH2A1.1-F192V (GFP-tagged); experiment: as above

Molecule	binding [1]	binding [2]	binding [3]
macroH2A1.1-GFP	binds	–	–
B1	–	binds	–
B2	–	binds	–
B3	–	binds	binds weakly
